Results reported in patent US20240041978A1, “LA PROTEIN AS A NOVEL REGULATOR OF OSTEOCLASTOGENESIS” (The U.S.A., as Represented by the Secretary, Department of …, priority 2021, published 2024).
No constants are given. Whether binding was seen depends on the method and setting. In cells and extracts the contact can be indirect. Some results given as binding are weak or reduced against the parent protein; the word gives no strength. Where a sequence is shown, tags or fusion partners need not be part of it.

Amino acid sequences for entries named in this document (tags omitted). Residues count along the entry.
UniProt P08758, residues 2-320: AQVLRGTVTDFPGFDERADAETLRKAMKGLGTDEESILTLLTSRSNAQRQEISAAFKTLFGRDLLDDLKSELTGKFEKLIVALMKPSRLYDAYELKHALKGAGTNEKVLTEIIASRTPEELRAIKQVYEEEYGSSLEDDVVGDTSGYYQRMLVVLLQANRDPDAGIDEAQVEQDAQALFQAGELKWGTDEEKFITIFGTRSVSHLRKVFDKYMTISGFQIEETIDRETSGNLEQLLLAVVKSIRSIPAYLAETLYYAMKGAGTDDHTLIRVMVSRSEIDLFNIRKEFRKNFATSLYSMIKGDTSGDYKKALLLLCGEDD

Target: T1, La protein (Lupus autoantigen), native, in lysates of fusing human osteoclasts (human) (UniProt P05455)
T1 sequence: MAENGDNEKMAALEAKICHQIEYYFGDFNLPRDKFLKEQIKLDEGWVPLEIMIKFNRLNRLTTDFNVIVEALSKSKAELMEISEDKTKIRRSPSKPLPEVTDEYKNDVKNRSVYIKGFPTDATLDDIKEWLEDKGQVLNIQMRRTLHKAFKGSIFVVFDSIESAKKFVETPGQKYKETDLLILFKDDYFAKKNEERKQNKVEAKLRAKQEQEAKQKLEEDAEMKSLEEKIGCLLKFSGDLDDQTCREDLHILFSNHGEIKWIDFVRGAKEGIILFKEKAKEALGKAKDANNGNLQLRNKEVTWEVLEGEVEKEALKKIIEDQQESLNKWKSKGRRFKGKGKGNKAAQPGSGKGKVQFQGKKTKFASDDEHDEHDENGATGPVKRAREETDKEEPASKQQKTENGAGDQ
Assay: co-immunoprecipitation with α-Anx A5 from fusing human osteoclasts, immunoblot

binding: binds
Substance: Annexin A5 (Anx A5), native, in fusing human osteoclasts (from UniProt P08758 2-320)
